Results reported in article PMC9525012.
These are yes or no findings as the source states them, for the method shown. Some binding calls cover weakened binding; strength is not graded here. For some of these results: Sequences can lack the tags named with a protein.

Key:
[1] = molecular target: human TIM-3-Fc fusion protein (human), Q8TDQ0; assay: Luminex bead assay; PE-labelled galectin-9 titrated on Luminex magnetic beads coated with two concentrations of TIM-3 Fc; both purified; conditions: remark: other sources report otherwise
[2] = molecular target: human TIM-3-Fc fusion protein (human), Q8TDQ0; assay: Luminex bead assay; competition: TIM-3 Fc beads incubated with serially diluted antibody 1.5 hours at RT, washed, then galectin-9 PE at 4 μg/ml for 45 minutes at RT; both purified; conditions: remark: other sources report otherwise
[3] = molecular target: human TIM-3-Fc fusion protein (human), Q8TDQ0; assay: MSD (MesoScale Discovery) plate assay; competition: plate coated with TIM-3 Fc at 2 μg/ml; sabatolimab in 1:2 serial dilutions 1 hour at RT, washed, then 3 μg/ml galectin-9 SULFO-TAG 1 hour at RT; both purified; conditions: remark: other sources report otherwise
[4] = molecular target: Sabatolimab, humanized anti-TIM-3 monoclonal antibody (hIgG4, S228P); assay: SPR; Biacore; sabatolimab captured (~50 RU) by a human Fab capture antibody amine-coupled on a CM5 chip; TIM-3/His as analyte, 90 nM diluted 1:3, seven concentrations, HBS-EP+ buffer; 1:1 binding model, double reference subtraction; both purified

B1: recombinant human galectin-9, PE-labelled, O00182 1-355 (ligand)
chain: MAFSGSQAPYLSPAVPFSGTIQGGLQDGLQITVNGTVLSSSGTRFAVNFQTGFSGNDIAFHFNPRFEDGGYVVCNTRQNGSWGPEERKTHMPFQKGMPFDLCFLVQSSDFKVMVNGILFVQYFHRVPFHRVDTISVNGSVQLSYISFQNPRTVPVQPAFSTVPFSQPVCFPPRPRGRRQKPPGVWPANPAPITQTVIHTVQSAPGQMFSTPAIPPMMYPHPAYPMPFITTILGGLYPSKSILLSGTVLPSAQRFHINLCSGNHIAFHLNPRFDENAVVRNTQIDNSWGSEERSLPRKMPFVRGQSFSVWILCEAHCLKVAVDGQHLFEYYHRLRNLPTINRLEVGGDIQLTHVQT
modifications: here or on the partner: conjugated to PE (Lightning Link R-PE Antibody Labeling Kit)
Q: How did the binding [1] turn out when B1 was run?
A: Its binding is “binds”.

Q: And the binding [2]?
A: Its binding is “binds”.

B2: human recombinant galectin-9, SULFO-TAG-labelled, O00182 1-355 (ligand)
chain: B1 chain
modifications: here or on the partner: conjugated with MSD GOLD SULFO-TAG NHS-Ester
Q: B2 was tested. Which binding [3] did it give?
A: Its binding is “binds”.

B3: recombinant murine TIM-3/His (receptor, UniProt Q8VIM0 20-193)
chain: RSLENAYVFEVGKNAYLPCSYTLSTPGALVPMCWGKGFCPWSQCTNELLRTDERNVTYQKSSRYQLKGDLNKGDVSLIIKNVTLDDHGTYCCRIQFPGLMNDKKLELKLDIKAAKVTPAQTAHGDSTTASPRTLTTERNGSETQTLVTLHNNNGTKISTWADEIKDSGETIRTA
Q: For B3, which binding [4] is on record?
A: The binding was “no binding (tested: 90 nM)”.
